Test results as given in patent US11612651B2, “Steroid acid-based immunogen enhancers” (priority 2021, dated 2023).
At least one structure is not confirmed: it was looked up by name or label, or the drawing left a doubt.

Tested on: B3Z cells
Assay: Antigen-presentation assay using the B3Z reporter system, BMDCs as antigen presenting cells
Format: cell-based, mouse
Settings: molar ratio (bile acid/peptide/conjugate):antigen 4:1, mixed with OVA, FIG. 2
Source text: For this experiment, BMDCs were used as the antigen presenting cells (n=6) and the molar ratio (bile acid/peptide/conjugate): antigen was 4:1. Controls tested included no antigen (“PBS”), antigen alone (“OVA alone”), unconjugated NLS peptide (“SV40NLS”), unconjugated cholic acid mixed with OVA (“CA”), and the positive control peptide SIINFEKL (SEQ ID NO: 9) mixed with OVA (“SIINFEKL”). The dashed line represents the signal obtained with OVA alone. Bile acids: cholic acid (CA); glycodeoxycholic acid (GDCA); glycochenodeoxycholic acid (GCDCA); ursodeoxycholic acid (UDCA); and lithocholic acid (LCA).
The dashed line represents the signal obtained with OVA alone. The readout was taken after 24 h of incubation and error bars represent SD (n=6). For this experiment, BMDCs were used as the antigen presenting cells.
The dashed line represents the signal obtained with OVA alone. Readout was taken after 24 h of incubation from a single experiment. The molar ratio of CA-peptide conjugate: OVA was 22:1. For this experiment, BMDCs were used as the antigen presenting cells.
For this experiment, BMDCs were used as the antigen presenting cells. […] Readout was taken after 24 h of incubation from a single experiment. […]
Various bile acid-NLS conjugates were screened using the B3Z reporter system. […] After a 5- or 24-h incubation at 37° C., absorbance was taken at 570 nm with 636 nm as the reference wavelength. […]

C[C@H](CCC(=O)O)[C@H]1CC[C@H]2[C@@H]3CC[C@@H]4C[C@H](O)CC[C@]4(C)[C@H]3CC[C@]12C [LCA] was tested, and the “antigen cross-presentation (B3Z response) compared with OVA alone” value was “comparable or higher antigen cross-presentation to CA-SV40NLS”.
